No constants are given. Whether binding was seen depends on the method and setting. Some results given as binding are weak or reduced against the parent protein; the word gives no strength. Sequences can lack the tags named with a protein.
Target: AtMPK6 (Arabidopsis thaliana MAP kinase 6) (Arabidopsis thaliana) (UniProt Q39026)
Test: SEC; Superdex 200 10/300 at 4°C; equal amounts of the two proteins incubated at 4°C for 60 min; 10 mM Tris-HCl pH 8.0, 150 mM NaCl, 2 mM dithiothreitol; 0.5 mL fractions on SDS-PAGE, Coomassie blue; both purified

By UniProt entry, the sequences of proteins in these tests, tags left out. Where a name states a change or a piece, a line headed by the entry shows the natural chain unless it says otherwise.
UniProt Q39026: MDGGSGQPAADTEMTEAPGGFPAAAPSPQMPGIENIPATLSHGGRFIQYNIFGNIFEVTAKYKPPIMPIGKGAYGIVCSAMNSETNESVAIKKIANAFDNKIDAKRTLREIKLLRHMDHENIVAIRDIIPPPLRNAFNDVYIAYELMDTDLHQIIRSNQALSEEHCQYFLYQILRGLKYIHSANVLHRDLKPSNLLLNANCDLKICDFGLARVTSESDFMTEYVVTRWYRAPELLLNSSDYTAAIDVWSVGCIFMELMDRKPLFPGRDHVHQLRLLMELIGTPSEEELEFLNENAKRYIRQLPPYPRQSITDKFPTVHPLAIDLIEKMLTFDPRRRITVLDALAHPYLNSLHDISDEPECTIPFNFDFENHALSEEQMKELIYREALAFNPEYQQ
UniProt Q8RXG3: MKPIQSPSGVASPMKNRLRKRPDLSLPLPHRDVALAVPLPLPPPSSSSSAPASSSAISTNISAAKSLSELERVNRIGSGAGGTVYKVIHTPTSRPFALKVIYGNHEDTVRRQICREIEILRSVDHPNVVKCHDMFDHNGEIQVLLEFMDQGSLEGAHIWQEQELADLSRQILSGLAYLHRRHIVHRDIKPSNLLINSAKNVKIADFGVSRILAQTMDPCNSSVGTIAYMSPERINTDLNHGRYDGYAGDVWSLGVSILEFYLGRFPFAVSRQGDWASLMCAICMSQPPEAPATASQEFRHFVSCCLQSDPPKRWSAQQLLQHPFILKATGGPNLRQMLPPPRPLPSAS

MKNRLRKRPDLSLPLPHRD (peptide, UniProt Q8RXG3 14-32) [putative KIM peptide of AtMKK5 with N-terminal His6-SUMO]
binding: binds
